From US20080248024A1, “THERAPEUTIC AGENT FOR CANCER, INFLAMMATION, AND AUTO-IMMUNE DISEASE CONTAINING INHIBITOR OF ZINC FINGER PROTEIN 91” (Korea Research Institute of Bioscience and Biotechnology, priority 2007, published 2008)
No constants are given. Whether binding was seen depends on the method and setting. For some assays here: Binding seen in cells or lysates may run through a third protein. Some binding calls cover weakened binding; strength is not graded here. Tags and fused reporters may be left off the sequences shown.

Sequences of proteins named here, by UniProt entry; tags and fusion partners are left off.
UniProt Q99558: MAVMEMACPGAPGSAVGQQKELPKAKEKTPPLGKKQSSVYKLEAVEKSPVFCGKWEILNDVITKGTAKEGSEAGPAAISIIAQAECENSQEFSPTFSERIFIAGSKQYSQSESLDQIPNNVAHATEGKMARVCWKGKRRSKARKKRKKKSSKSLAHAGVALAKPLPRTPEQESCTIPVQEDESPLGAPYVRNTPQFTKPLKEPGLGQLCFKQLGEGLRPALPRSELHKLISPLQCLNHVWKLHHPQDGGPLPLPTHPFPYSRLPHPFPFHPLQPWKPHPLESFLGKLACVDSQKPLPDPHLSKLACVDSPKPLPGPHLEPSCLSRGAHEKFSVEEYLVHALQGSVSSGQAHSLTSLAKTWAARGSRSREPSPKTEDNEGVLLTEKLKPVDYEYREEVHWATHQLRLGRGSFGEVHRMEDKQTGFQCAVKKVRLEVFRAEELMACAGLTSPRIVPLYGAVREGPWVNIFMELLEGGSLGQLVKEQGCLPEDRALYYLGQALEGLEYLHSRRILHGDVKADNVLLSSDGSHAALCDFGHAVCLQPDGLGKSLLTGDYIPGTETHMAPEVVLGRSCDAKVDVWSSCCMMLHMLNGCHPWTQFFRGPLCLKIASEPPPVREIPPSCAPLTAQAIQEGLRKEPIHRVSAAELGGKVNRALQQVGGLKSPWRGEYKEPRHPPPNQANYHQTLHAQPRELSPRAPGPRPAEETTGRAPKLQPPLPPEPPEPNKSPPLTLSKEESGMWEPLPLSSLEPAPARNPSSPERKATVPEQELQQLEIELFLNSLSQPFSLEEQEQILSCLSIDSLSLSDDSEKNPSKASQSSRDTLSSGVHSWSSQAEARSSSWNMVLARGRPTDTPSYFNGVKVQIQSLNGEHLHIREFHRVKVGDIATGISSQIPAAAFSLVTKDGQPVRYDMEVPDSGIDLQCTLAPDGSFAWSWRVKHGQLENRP
UniProt P40337: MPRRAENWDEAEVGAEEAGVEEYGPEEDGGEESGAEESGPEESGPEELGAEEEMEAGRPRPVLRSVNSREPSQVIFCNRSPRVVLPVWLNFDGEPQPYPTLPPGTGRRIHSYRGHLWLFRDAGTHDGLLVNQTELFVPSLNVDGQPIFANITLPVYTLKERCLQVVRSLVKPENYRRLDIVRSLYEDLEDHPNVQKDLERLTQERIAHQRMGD

Columns and labels:
[1] = target: T1, HA-TRAF2 (TNF-receptor-associated factor 2) (UniProt Q12933); assay: co-immunoprecipitation (FIG. 22), told in the description
T1 sequence (looked up): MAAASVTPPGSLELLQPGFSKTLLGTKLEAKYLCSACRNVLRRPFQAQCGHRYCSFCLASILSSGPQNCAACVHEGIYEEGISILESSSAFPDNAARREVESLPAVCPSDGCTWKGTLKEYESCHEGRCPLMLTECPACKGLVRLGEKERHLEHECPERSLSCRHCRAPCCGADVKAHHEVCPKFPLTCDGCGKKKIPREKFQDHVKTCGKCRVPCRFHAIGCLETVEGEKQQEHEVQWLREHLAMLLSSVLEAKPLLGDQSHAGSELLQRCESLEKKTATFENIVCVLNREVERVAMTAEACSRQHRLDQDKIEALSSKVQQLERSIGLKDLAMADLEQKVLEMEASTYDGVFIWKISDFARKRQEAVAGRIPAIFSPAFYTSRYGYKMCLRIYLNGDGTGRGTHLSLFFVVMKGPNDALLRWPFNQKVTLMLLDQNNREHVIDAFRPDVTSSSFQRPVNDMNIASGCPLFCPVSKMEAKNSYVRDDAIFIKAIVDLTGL

[2] = target: myc-NIK (NF-kB-inducing kinase, NIK/MAP3K14) (UniProt Q99558); assay: as above
[3] = target: HA-VHL (Von Hippel-Lindau protein) (UniProt P40337); assay: co-immunoprecipitation (FIG. 34), told in the description
[4] = target: HA-VHL (Von Hippel-Lindau protein) (UniProt P40337); assay: figure legend: IP anti-FLAG and anti-HA from HEK293 cells, Western anti-HA and anti-FLAG
[5] = target: T1, HA-TRAF2 (TNF-receptor-associated factor 2); assay: IP with ZFP91 from HEK293 cells over-expressing ZFP91, NIK and TRAF2, told in the description
[6] = target: myc-NIK (NF-kB-inducing kinase, NIK/MAP3K14) (UniProt Q99558); assay: as above
[7] = target: T1, HA-TRAF2 (TNF-receptor-associated factor 2); assay: IP of ZFP91 (anti-FLAG) from HEK293 cells over-expressing ZFP91, NIK and TRAF2; Western anti-HA
[8] = target: myc-NIK (NF-kB-inducing kinase, NIK/MAP3K14) (UniProt Q99558); assay: IP of ZFP91 (anti-FLAG) from HEK293 cells over-expressing ZFP91, NIK and TRAF2; Western anti-NIK
[9] = target: myc-NIK (NF-kB-inducing kinase, NIK/MAP3K14) (UniProt Q99558); assay: co-immunoprecipitation from HEK293 cells over-expressing myc-NIK and FLAG-ZFP91, Western blotting
[10] = target: T1, HA-TRAF2 (TNF-receptor-associated factor 2); assay: figure legend: IP with anti-FLAG, anti-NIK or anti-HA antibody from HEK293 cells, Western blotting
[11] = target: myc-NIK (NF-kB-inducing kinase, NIK/MAP3K14) (UniProt Q99558); assay: as above
[12] = target: T1, HA-TRAF2 (TNF-receptor-associated factor 2); assay: co-immunoprecipitation from HEK293 cells over-expressing HA-TRAF2 and FLAG-ZFP91, Western blotting
[13] = target: HA-VHL (Von Hippel-Lindau protein) (UniProt P40337); assay: IP with anti-FLAG, anti-HA or anti-GAL-4 antibody from HEK293 cells, Western blotting, told in the description
[14] = target: HA-VHL (Von Hippel-Lindau protein) (UniProt P40337); assay: co-immunoprecipitation from HEK293T cells transfected with FLAG-ZFP91, HA-VHL and GAL4-HIF-1α in combination, Western blotting

Measured: binding

B1: FLAG-ZFP91 (Zinc Finger Protein 91 whose N-terminal was tagged with FLAG) (protein, human, UniProt Q96JP5 1-570, looked up, not shown: small tags and cut ends)
chain: MPGETEEPRPPEQQDQEGGEAAKAAPEEPQQRPPEAVAAAPAGTTSSRVLRGGRDRGRAAAAAAAAAVSRRRKAEYPRRRRSSPSARPPDVPGQQPQAAKSPSPVQGKKSPRLLCIEKVTTDKDPKEEKEEEDDSALPQEVSIAASRPSRGWRSSRTSVSRHRDTENTRSSRSKTGSLQLICKSEPNTDQLDYDVGEEHQSPGGISSEEEEEEEEEMLISEEEIPFKDDPRDETYKPHLERETPKPRRKSGKVKEEKEKKEIKVEVEVEVKEEENEIREDEEPPRKRGRRRKDDKSPRLPKRRKKPPIQYVRCEMEGCGTVLAHPRYLQHHIKYQHLLKKKYVCPHPSCGRLFRLQKQLLRHAKHHTDQRDYICEYCARAFKSSHNLAVHRMIHTGEKPLQCEICGFTCRQKASLNWHMKKHDADSFYQFSCNICGKKFEKKDSVVAHKAKSHPEVLIAEALAANAGALITSTDILGTNPESLTQPSDGQGLPLLPEPLGNSTSGECLLLEAEGMSKSYCSGTERVSLMADGKIFVGSGSSGGTEGLVMNSDILGATTEVLIEDSDSAGP
binds: all assays above
